Measured values published in PubChem BioAssay AID588497 (NMMLSC, 2011).
In all, about 360,000 compounds went through this assay and about 780 (0.22%) were called active. This list was built around the results that the source calls inconclusive (neither active nor inactive); the mix of calls is not that of the screen. No stated cut-off is given here; in the data, active means inhibition above about 35% (passing the limit was not always enough); inconclusive means no clear call, values can overlap the other calls.

These compounds were tested on Botulinum neurotoxin type F light chain protease (Clostridium botulinum) (assay: BoNT/F light chain protease inhibitors, primary screen, biochemical, flow cytometry, MLPCN library (AID 588497; further: plate controls were buffer without enzyme for full effect and enzyme alone for no effect)). Details: Multiplex microsphere protease cleavage assay, at 10 µM, stronger effect = higher value.
In the case of `S=C1N(c2ccccc2)C(c2ccc(Br)cc2)N2CCCN12` (configuration not stated), the inhibition is reported as inconclusive: -54.4%.
In the case of `CC(=O)/C(C#N)=C1\NC(=O)C(Cc2cc(Cl)ccc2Cl)S1` (configuration not stated), the inhibition is reported as inconclusive: -0.9%.
In the case of `FC(F)(F)c1nc(SCc2ccc(Cl)cc2Cl)n[nH]1`, the inhibition is reported as inconclusive: 14.1%.
With `c1ccc(CN2CCN(c3ncccn3)CC2)cc1` the inhibition was inconclusive: 7%.
With `COc1ccc(OC)c(/C=N/Nc2nncn2/N=C/c2cc(OC)ccc2OC)c1` the inhibition was inactive: -9.5%.
In the case of `CN1C(=O)c2ccccc2N(C)C1c1cccc(O)c1` (configuration not stated), the inhibition is reported as inconclusive: -19.8%.
In the case of `CCN(CC)CCNC(=O)c1ccc(NC(=O)c2cc(S(=O)(=O)N3CCCCC3)ccc2C)cc1`, the inhibition is reported as inconclusive: 11.4%.
`O=C(NC(=S)Nc1ccccc1N1CCOCC1)c1ccc(-c2ccccc2F)o1` was tested, and the inhibition was inconclusive: -60.2%.
In the case of `CCc1nc2ccccc2c(NC(=O)CN2CC(C)CC(C)C2)c1C` (configuration not stated), the inhibition is reported as inactive: -9.1%.
`O=[N+]([O-])c1ccc(-c2ccc(S(=O)(=O)N3CCOCC3)cc2)cc1` was tested, and the inhibition was inconclusive: 2.8%.
`Cc1cccc(Nc2ncc3c(n2)CC(C)CC3=O)c1` (configuration not stated) was tested, and the inhibition was inactive: -0.9%.
With `CSc1ccc(S(=O)(=O)NCC(=O)OCC(=O)N2CCCC2=O)cc1[N+](=O)[O-]` the inhibition was inconclusive: 3.5%.
For `COc1cccc(N2C(=O)C3C(C2=O)C2C=CC3C23CC3)c1` (configuration not stated), the inhibition was inconclusive: 12.7%.
With `CC(C)C(c1nnnn1C(C)(C)C)N1CCN(c2cccc(Cl)c2)CC1` (configuration not stated) the inhibition was inconclusive: -4.9%.
For `CN(NC1OC(=O)c2ccccc21)c1ncc(C(F)(F)F)cc1Cl` (configuration not stated), the inhibition was inconclusive: 16.1%.
For `Cc1cc(C)c2oc(C(=O)NC3CCS(=O)(=O)C3)cc(=O)c2c1` (configuration not stated), the inhibition was inactive: -0.4%.
In the case of `Cc1ccc2c(c1)c1c3n2CCN(C(=O)CCl)C3CCC1` (configuration not stated), the inhibition is reported as inactive: 3.7%.
In the case of `COc1ccc(Cc2nnc(NC(=O)C(C)C)s2)cc1`, the inhibition is reported as inconclusive: -28.3%.
For `COc1cccc(C(=O)Nn2cnnc2)c1OC`, the inhibition was inconclusive: -26.5%.
In the case of `O=S(=O)(F)c1ccc2nc(-c3cccc(Sc4ccccc4)c3)cc(Cl)c2c1`, the inhibition is reported as inconclusive: -122%.
`O=C(CN1C(=O)/C(=C/c2ccccc2)SC1=S)Nc1cccnc1` was tested, and the inhibition was inactive: -1.7%.
`Cc1ncc(S(=O)(=O)c2ccc(Cl)cc2)c(N)n1` was tested, and the inhibition was inconclusive: -28.1%.
For `O=C(O/N=C1/CCCc2occc21)c1ccc(F)cc1`, the inhibition was inactive: -2.6%.
With `COc1cc(C(=S)N2CCOCC2)cc(OC)c1OC(=O)c1ccc(C)cc1` the inhibition was inconclusive: 8.9%.
In the case of `O=[N+]([O-])c1ccc(N2CCN(C(=S)Nc3cccc(F)c3)CC2)cc1`, the inhibition is reported as inactive: -0.4%.
`CS(=O)(=O)c1ccc2nc(NC(=O)Nc3ccccc3F)sc2c1` was tested, and the inhibition was inconclusive: 0.6%.
In the case of `O=C(Nc1ccc(OC(F)(F)F)cc1)Oc1ccccc1N1CCOCC1`, the inhibition is reported as inconclusive: 27.6%.
`CCO/N=C(\N)c1[nH]ncc1Br` was tested, and the inhibition was inconclusive: -68.2%.
In the case of `Cn1c2ccccc2c2nnc(SCC(=O)Nc3cccc(O)c3)nc21`, the inhibition is reported as inconclusive: 4.9%.
With `CCOC(=O)C1=C(C)OC2(O)c3ccccc3C(=O)C12O` (configuration not stated) the inhibition was inconclusive: -5.8%.
`CCc1ccccc1-n1ncc(C(=O)Nc2ccccc2OC)c1C` was tested, and the inhibition was inconclusive: -21.2%.
With `CCN1CCN(c2ccc(Nc3ccnc4ccccc34)cc2)CC1` the inhibition was inactive: -18.5%.
`Cc1ccc(OCCC(=O)OCC(=O)NC2CCCC2)cc1` was tested, and the inhibition was inconclusive: -3.4%.
In the case of `COc1ccc(NC(=O)C2CCCN(S(C)(=O)=O)C2)cc1OC` (configuration not stated), the inhibition is reported as inconclusive: 11%.
`O=C(CC(c1ccccc1)c1cc(Br)ccc1O)N1CCCCC1` (configuration not stated) was tested, and the inhibition was inactive: 1%.
For `COc1ccc(S(=O)(=O)N2CC(=O)Nc3ccccc32)cc1`, the inhibition was inactive: -1%.
For `Cc1cc2oc(C(=O)Nc3c(C)n(C)n(-c4ccccc4)c3=O)c(C)c2cc1C`, the inhibition was inconclusive: 19%.
With `COc1ccccc1NC(=O)NC(N)=O` the inhibition was inactive: -3.4%.
`O=C(CCCOc1ccccc1)Nc1ccc(Cl)cn1` was tested, and the inhibition was inactive: -7.9%.
With `COC(=O)[C@]1(C)N[C@H](CN(C)C(=O)c2ccccc2)[C@@H]2C(=O)N(C)C(=O)[C@@H]21` the inhibition was inactive: -4.5%.
For `C[C@H](NS(=O)(=O)c1ccc2c(c1)OCCCO2)C(=O)N1CCN(c2ccc(F)cc2)CC1`, the inhibition was inactive: -3.2%.
`CCc1ccc(-c2cnc3nc[nH]c(=O)c3n2)cc1` was tested, and the inhibition was inconclusive: -16%.
`CC(C)=C1SC(N2CCN(c3ccc(C)c(Cl)c3)CC2)=NC1=O` was tested, and the inhibition was inconclusive: 1.5%.
`CCOCCCN(C(=O)Cn1nnc2ccccc21)C(C(=O)NCc1ccco1)c1ccncc1` (configuration not stated) was tested, and the inhibition was inconclusive: -11.7%.
In the case of `CCOc1ccc(NC(=O)c2[nH]c(C)c(C(C)=O)c2C)cc1`, the inhibition is reported as active: 35.1%.
With `COc1ccc(C(=O)C2CCCN(C(=O)c3cccnc3SC)C2)c(C)c1` (configuration not stated) the inhibition was inactive: -1.9%.
In the case of `O=C(O)Cn1c(=O)c2c3c(sc2n(Cc2ccc(Cl)cc2Cl)c1=O)CCCC3`, the inhibition is reported as inconclusive: -4.3%.
`O=C(N/N=C/c1c(O)n(Cc2ccco2)c(=O)[nH]c1=O)c1ccccc1` was tested, and the inhibition was inconclusive: 6.1%.
With `CC(=O)c1ccc(-n2ccnc2)cc1` the inhibition was inconclusive: -29.7%.
For `CCC(C)[C@H](NC(=O)NCCC1=CCCCC1)C(=O)OC` (some centres not stated), the inhibition was inconclusive: -22.5%.
For `CCOC(=O)Cn1cc(/C=C(\C#N)C(=O)N2CCOCC2)c2ccccc21`, the inhibition was inconclusive: -64.2%.
With `COC(=O)c1cc(C)[nH]c2c(C)cc3nc4ccccc4c3c12` the inhibition was inconclusive: -41%.
For `CC(=O)c1ccc(/C=C/c2nc3ccccc3n2C)o1`, the inhibition was inconclusive: -1.8%.
`Cc1ccc(C(=O)O)cc1N1C(=O)c2cccc3c([N+](=O)[O-])ccc(c23)C1=O` was tested, and the inhibition was inconclusive: 8.6%.
With `C=CCCC(=O)NC1CCCc2c1cnn2-c1ccccc1F` (configuration not stated) the inhibition was inconclusive: 15.4%.
For `OC(CC#CCN1CCCCC1)(c1ccccc1)c1ccccc1`, the inhibition was inconclusive: -6.8%.
With `COc1cc(C=C2C(=O)C=CC2=O)ccc1O` the inhibition was inactive: 21.4%.
`CCc1cccc(C)c1NC(=O)C1CCCN(S(C)(=O)=O)C1` (configuration not stated) was tested, and the inhibition was inconclusive: -44.6%.
In the case of `Cc1cn(Cc2ccccc2Cn2cc(C)c(=O)[nH]c2=O)c(=O)[nH]c1=O`, the inhibition is reported as inconclusive: -13.5%.
For `COc1cccc(N2C(=O)CC(Sc3nc(C)cc(C)n3)C2=O)c1` (configuration not stated), the inhibition was inconclusive: -22.9%.
In the case of `CCOc1ccc(NC2CCCCC2NS(=O)(=O)c2ccccc2)cc1` (configuration not stated), the inhibition is reported as inactive: 4.7%.
For `O=C(NC(=S)NC1CCCCCCCCCCC1)c1cccnc1`, the inhibition was inactive: -23.2%.
For `O=C(NCc1csc(-c2cccs2)n1)Nc1ccc(F)cc1F`, the inhibition was inconclusive: -19.4%.
`O=C(Nc1cccnc1Oc1ccc(Cl)cc1)c1cccc2ccccc12` was tested, and the inhibition was inconclusive: -77.9%.
`COC(=O)c1nc(-c2ccc(C)cc2)oc1N(C)C` was tested, and the inhibition was inactive: -0.7%.
With `Clc1ccc(-c2nc(N3CCCCC3)nc3ccccc23)cc1` the inhibition was active: 58.9%.
`Cc1cc(C)cc(N2C(=O)NC(=O)/C(=C\c3cccn3-c3ccccc3)C2=O)c1` was tested, and the inhibition was active: 67.5%.
For `CC(C)(C)NC(=O)CCN(/N=C/c1ccccc1F)C1=NS(=O)(=O)c2ccccc21`, the inhibition was inconclusive: 3.1%.
For `CCCCCOc1ccc(C(=O)NCCC(=O)NCCCC(=O)OCC)cc1`, the inhibition was inconclusive: 36.4%.
In the case of `Cc1cc(C)c2c(CN3CCOCC3)cc(=O)oc2c1C`, the inhibition is reported as inconclusive: -17.1%.
In the case of `Cc1ccccc1-c1noc(CCC(=O)NCc2ccco2)n1`, the inhibition is reported as inconclusive: -27.8%.
`COC(=O)c1cccc(Nc2nc(-c3cccnc3)nc3ccccc23)c1` was tested, and the inhibition was inconclusive: -67.3%.
With `Cc1ccccc1OCc1nnc(SCC(=O)Nc2ccc3c(c2)OCO3)n1C` the inhibition was inactive: 7.1%.
In the case of `OC(COc1ccc(Br)cc1)Cn1ccnc1` (configuration not stated), the inhibition is reported as inconclusive: 21.3%.
With `Cc1onc(-c2ccc(Cl)cc2)c1-c1ccnc(SCC(=O)Nc2cc(Cl)cc(Cl)c2)n1` the inhibition was inconclusive: -175%.
`Fc1cccc(-c2cc3nc(-c4ccccc4)cc(N4CCC5(CC4)OCCO5)n3n2)c1` was tested, and the inhibition was inconclusive: -38.8%.
In the case of `CN1C(=O)NC(c2cccc(F)c2)C2=C1CC(C)(C)CC2=O` (configuration not stated), the inhibition is reported as inconclusive: -9.8%.
`Brc1cccc(CNCCc2ccc3c(c2)OCO3)c1` was tested, and the inhibition was inconclusive: 0.4%.
In the case of `Cn1cnc([N+](=O)[O-])c1N=C(N)N`, the inhibition is reported as inconclusive: -17.8%.
For `COc1ccc(N2C3=C(C(=O)CC(C)(C)C3)C(c3ccccc3OC)C3=C2CC(C)(C)CC3=O)cc1`, the inhibition was inconclusive: 14.7%.
In the case of `Cc1ccc(C(=O)NNC(=O)c2ccoc2C)s1`, the inhibition is reported as inactive: -9%.
With `COCCNC(=O)c1ccc2nc(Cc3ccc(OC)c(OC)c3)oc2c1` the inhibition was inconclusive: -4.6%.
In the case of `CCCn1c(N)c(N(CCOC)C(=O)c2cccc(S(=O)(=O)N3CCCc4ccccc43)c2)c(=O)[nH]c1=O`, the inhibition is reported as inactive: -5.7%.
In the case of `Cc1cc(NS(=O)(=O)c2ccc(NC(=O)c3ccco3)cc2)no1`, the inhibition is reported as inactive: 0.4%.
`O=C(O)CN1C(=O)/C(=C/c2cccc(Cl)c2)Oc2ccccc21` was tested, and the inhibition was inconclusive: 9.9%.
In the case of `O=Cc1cn(-c2ccc(F)cc2)c2ccccc12`, the inhibition is reported as inactive: -14.3%.
`CCCCC(C(=O)NCCC(C)C)N(CCCN1CCOCC1)C(=O)c1snc(C(N)=O)c1N` (configuration not stated) was tested, and the inhibition was inactive: -0.2%.
In the case of `Cc1cccc(N2C(=O)C(O)=C(C(=O)c3cccs3)C2c2ccc(C(C)C)cc2)n1` (configuration not stated), the inhibition is reported as inactive: -13.9%.
In the case of `CNC(=O)/C=C/c1cccc(C(F)(F)F)c1`, the inhibition is reported as active: 39.8%.
In the case of `COc1ccc(OC)c(NC(=O)c2cccc(NC(=O)c3ccccc3)c2)c1`, the inhibition is reported as inconclusive: -31.7%.
`O=C(NCC(=O)N(Cc1cccs1)C(C(=O)NC1CCCC1)c1cccnc1)c1ccco1` (configuration not stated) was tested, and the inhibition was inconclusive: -10.3%.
`CCc1nc2c(OCc3cc(Cl)cc(Cl)c3)cccn2c1N(C)C(=O)c1ccccc1F` was tested, and the inhibition was inactive: -3.6%.
